{
  "source": "the supplement of paper PMC8256030",
  "key": {"[1]": {"test_system": "SARS-CoV-2 -1 PRF reporter mCherry-FSE-GFP(-1)", "test": "mCherry (red) intensity as percent of control; higher = higher upstream reporter expression", "conditions": "10 µM; 24 h; HEK293T"}, "[2]": {"test_system": "SARS-CoV-2 -1 PRF reporter mCherry-FSE-GFP(-1)", "test": "percent effect, decrease of GFP/mCherry ratio (-1 PRF reporter) relative to controls; higher = stronger frameshift inhibition", "conditions": "10 µM; 24 h; HEK293T"}},
  "note": "Where “and” joins values, the source holds several entries; their conditions need not be identical. Identical values can stand only once. The list shows a part of the results. This data set is noisy: repeats of one test often differ as much as different tests do.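 HEK293T cells were given each compound shortly before transfection with a reporter in which red mCherry is followed by the SARS-CoV-2 frameshift element and then GFP in the −1 frame, so GFP appears only after frameshifting.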",
  "data": [
    {"smiles": "CN(C)CC/C=C1/c2ccccc2COc2ccc(CC(=O)O)cc21", "note": "[Patanol]", "values": [
      {"measurement": "mCherry", "setting": "[1]", "result": 107, "unit": "%"},
      {"measurement": "percent effect", "setting": "[2]", "result": -0.527, "unit": "%"}
    ]},
    {"smiles": "CC(=O)OC[C@H]1O[C@@H](n2ncc(=O)[nH]c2=O)[C@H](OC(C)=O)[C@@H]1OC(C)=O", "note": "[azaribine]", "values": [
      {"measurement": "mCherry", "setting": "[1]", "result": 50.9, "unit": "%"},
      {"measurement": "percent effect", "setting": "[2]", "result": -3.28, "unit": "%"}
    ]},
    {"smiles": "CC1=C(C(=O)O)N2C(=O)[C@@H](NC(=O)[C@H](N)C3=CCC=CC3)[C@H]2SC1", "values": [
      {"measurement": "mCherry", "setting": "[1]", "result": 88.3, "unit": "%"},
      {"measurement": "percent effect", "setting": "[2]", "result": 1.75, "unit": "%"}
    ]},
    {"smiles": "CNS(=O)(=O)CCc1ccc2[nH]cc(C3CCN(C)CC3)c2c1", "note": "[naratriptan]", "values": [
      {"measurement": "mCherry", "setting": "[1]", "result": 123, "unit": "%"},
      {"measurement": "percent effect", "setting": "[2]", "result": -0.13, "unit": "%"}
    ]},
    {"smiles": "NC(=O)c1csc([C@@H]2O[C@H](CO)[C@@H](O)[C@H]2O)n1", "note": "[tiazofurine]", "values": [
      {"measurement": "mCherry", "setting": "[1]", "result": 83.6, "unit": "%"},
      {"measurement": "percent effect", "setting": "[2]", "result": -4.12, "unit": "%"}
    ]},
    {"smiles": "C[C@@](Cc1ccc(O)c(O)c1)(NN)C(=O)O", "note": "[carbidopa]", "values": [
      {"measurement": "mCherry", "setting": "[1]", "result": "109% and 85.2%"},
      {"measurement": "percent effect", "setting": "[2]", "result": "3.96% and 1.57%"}
    ]},
    {"smiles": "NCCCCCC(=O)O", "values": [
      {"measurement": "mCherry", "setting": "[1]", "result": 80.7, "unit": "%"},
      {"measurement": "percent effect", "setting": "[2]", "result": -2.3, "unit": "%"}
    ]},
    {"smiles": "CN1C(C(=O)Nc2ccccn2)=C(O)c2ccccc2S1(=O)=O", "note": "[piroxicam]", "values": [
      {"measurement": "mCherry", "setting": "[1]", "result": 98.6, "unit": "%"},
      {"measurement": "percent effect", "setting": "[2]", "result": -4.8, "unit": "%"}
    ]},
    {"smiles": "COC(=O)[C@H]1[C@H]2C[C@@H]3c4[nH]c5cc(OC)ccc5c4CCN3C[C@H]2C[C@@H](OC(=O)c2cc(OC)c(OC)c(OC)c2)[C@@H]1OC", "note": "[reserpine]", "values": [
      {"measurement": "mCherry", "setting": "[1]", "result": 50.7, "unit": "%"},
      {"measurement": "percent effect", "setting": "[2]", "result": -12.9, "unit": "%"}
    ]},
    {"smiles": "CN1CCN(C2=Nc3ccccc3Cc3ccccc32)CC1", "note": "[perlapine]", "values": [
      {"measurement": "mCherry", "setting": "[1]", "result": 67.9, "unit": "%"},
      {"measurement": "percent effect", "setting": "[2]", "result": -12.3, "unit": "%"}
    ]},
    {"smiles": "CCN1CCC[C@H]1CNC(=O)c1cc(S(N)(=O)=O)ccc1OC", "note": "[levosulpiride]", "values": [
      {"measurement": "mCherry", "setting": "[1]", "result": 102, "unit": "%"},
      {"measurement": "percent effect", "setting": "[2]", "result": 2.56, "unit": "%"}
    ]},
    {"smiles": "COc1ccc2cc1Oc1cc3c(cc1OC)CC[N+](C)(C)[C@H]3Cc1ccc(cc1)Oc1c(OC)c(OC)cc3c1[C@@H](C2)[N+](C)(C)CC3", "note": "[Metubine]", "values": [
      {"measurement": "mCherry", "setting": "[1]", "result": 107, "unit": "%"},
      {"measurement": "percent effect", "setting": "[2]", "result": -4.71, "unit": "%"}
    ]},
    {"smiles": "Cc1cc(C(=O)NCCc2ccc(S(=O)(=O)NC(=O)NN3CCCCCC3)cc2)no1", "note": "[Glisoxepide]", "values": [
      {"measurement": "mCherry", "setting": "[1]", "result": 93.4, "unit": "%"},
      {"measurement": "percent effect", "setting": "[2]", "result": -3.9, "unit": "%"}
    ]},
    {"smiles": "C/N=C(/NC#N)NCCSCc1csc(NC(=N)N)n1", "note": "[Tiotidine]", "values": [
      {"measurement": "mCherry", "setting": "[1]", "result": 107, "unit": "%"},
      {"measurement": "percent effect", "setting": "[2]", "result": 2.88, "unit": "%"}
    ]},
    {"smiles": "CN[C@@H]1[C@H](O)[C@H](NC)[C@H]2O[C@@]3(O)C(=O)C[C@@H](C)O[C@H]3O[C@@H]2[C@H]1O", "note": "[spectinomycin]", "values": [
      {"measurement": "mCherry", "setting": "[1]", "result": 107, "unit": "%"},
      {"measurement": "percent effect", "setting": "[2]", "result": -2.5, "unit": "%"}
    ]},
    {"smiles": "OCCN1CCN(CC/C=C2/c3ccccc3Sc3ccc(Cl)cc32)CC1", "note": "[zuclopenthixol]", "values": [
      {"measurement": "mCherry", "setting": "[1]", "result": 40.2, "unit": "%"},
      {"measurement": "percent effect", "setting": "[2]", "result": -4.67, "unit": "%"}
    ]},
    {"smiles": "COc1ccc(N(CCCC(=O)O)C(=O)c2ccc(Cl)cc2)cc1", "note": "[clanobutin]", "values": [
      {"measurement": "mCherry", "setting": "[1]", "result": 58.8, "unit": "%"},
      {"measurement": "percent effect", "setting": "[2]", "result": -1.06, "unit": "%"}
    ]},
    {"smiles": "O=C(N[C@@H](Cc1c[nH]c2ccccc12)C(=O)O)c1ccc(Cl)cc1", "note": "[benzotript]", "values": [
      {"measurement": "mCherry", "setting": "[1]", "result": 96.7, "unit": "%"},
      {"measurement": "percent effect", "setting": "[2]", "result": -6.31, "unit": "%"}
    ]},
    {"smiles": "COc1cc2c(cc1OC)-c1c/c(=N\\c3c(C)cc(C)cc3C)n(C)c(=O)n1CC2", "note": "[trequinsin]", "values": [
      {"measurement": "mCherry", "setting": "[1]", "result": 72.2, "unit": "%"},
      {"measurement": "percent effect", "setting": "[2]", "result": -4.22, "unit": "%"}
    ]},
    {"smiles": "CC(C)C[C@H](NC(=O)[C@@H](Cc1ccc2ccccc2c1)NC(=O)[C@H](Cc1ccc(O)cc1)NC(=O)[C@H](CO)NC(=O)[C@H](Cc1c[nH]c2ccccc12)NC(=O)[C@H](Cc1cnc[nH]1)NC(=O)[C@@H]1CCC(=O)N1)C(=O)N[C@@H](CCCN=C(N)N)C(=O)N1CCC[C@H]1C(=O)NCC(N)=O", "note": "[nafarelin]", "values": [
      {"measurement": "mCherry", "setting": "[1]", "result": 91.5, "unit": "%"},
      {"measurement": "percent effect", "setting": "[2]", "result": 0.81, "unit": "%"}
    ]},
    {"smiles": "Cc1c2oc3c(C)ccc(C(=O)N[C@@H]4C(=O)N[C@H](C(C)C)C(=O)N5CCC[C@H]5C(=O)N(C)CC(=O)N(C)[C@@H](C(C)C)C(=O)O[C@@H]4C)c3nc-2c(C(=O)N[C@@H]2C(=O)N[C@H](C(C)C)C(=O)N3CCC[C@H]3C(=O)N(C)CC(=O)N(C)[C@@H](C(C)C)C(=O)O[C@@H]2C)c(N)c1=O", "note": "[dactinomycin]", "values": [
      {"measurement": "mCherry", "setting": "[1]", "result": 941, "unit": "%"},
      {"measurement": "percent effect", "setting": "[2]", "result": -24.6, "unit": "%"}
    ]},
    {"smiles": "CCN[C@@H]1C[C@H](N)[C@@H](O[C@H]2OC(CN)=CC[C@H]2N)[C@H](O)[C@H]1O[C@H]1OC[C@](C)(O)[C@H](NC)[C@H]1O", "values": [
      {"measurement": "mCherry", "setting": "[1]", "result": 103, "unit": "%"},
      {"measurement": "percent effect", "setting": "[2]", "result": -0.72, "unit": "%"}
    ]},
    {"smiles": "CC[N+](C)(C)c1cccc(O)c1", "note": "[edrophonium chloride]", "values": [
      {"measurement": "mCherry", "setting": "[1]", "result": 113, "unit": "%"},
      {"measurement": "percent effect", "setting": "[2]", "result": 3.56, "unit": "%"}
    ]},
    {"smiles": "CN(C)CCO/N=C(/C=C/c1ccc(O)cc1)c1ccccc1F", "note": "[eplivanserin]", "values": [
      {"measurement": "mCherry", "setting": "[1]", "result": 106, "unit": "%"},
      {"measurement": "percent effect", "setting": "[2]", "result": -9.92, "unit": "%"}
    ]},
    {"smiles": "O=C(O)/C=C/C(=O)O", "values": [
      {"measurement": "mCherry", "setting": "[1]", "result": 123, "unit": "%"},
      {"measurement": "percent effect", "setting": "[2]", "result": 2.47, "unit": "%"}
    ]},
    {"smiles": "COc1cc(OC)nc(O[C@H](C(=O)O)C(OC)(c2ccccc2)c2ccccc2)n1", "note": "[darusentan]", "values": [
      {"measurement": "mCherry", "setting": "[1]", "result": 138, "unit": "%"},
      {"measurement": "percent effect", "setting": "[2]", "result": -3.3, "unit": "%"}
    ]},
    {"smiles": "Cc1ccc(S(=O)(=O)NC(=O)NC2CCCC2)cc1", "note": "[tolpentamide]", "values": [
      {"measurement": "mCherry", "setting": "[1]", "result": 77.9, "unit": "%"},
      {"measurement": "percent effect", "setting": "[2]", "result": -4.41, "unit": "%"}
    ]},
    {"smiles": "CC(C)(C)CC(C)(C)c1cc(Cc2cc(C(C)(C)CC(C)(C)C)cc(-n3nc4ccccc4n3)c2O)c(O)c(-n2nc3ccccc3n2)c1", "note": "[bisoctrizole]", "values": [
      {"measurement": "mCherry", "setting": "[1]", "result": 107, "unit": "%"},
      {"measurement": "percent effect", "setting": "[2]", "result": -0.494, "unit": "%"}
    ]}
  ]
}
